{"source": "patent US9561201B2", "about": "“Therapeutic compounds” (Fibrotech Therapeutics Pty Ltd, priority 2006, dated 2017)", "tested_on": "STZ diabetic (mRen-2)27 rats", "test": "Diabetic (mRen-2)27 rats treated with FT011", "format": "in vivo", "conditions": "16 weeks", "key": {"[1]": {"conditions": "diabetic rats + FT011 100 mg/kg bid gavage"}, "[2]": {"conditions": "non-diabetic control rats + FT011 100 mg/kg bid gavage"}}, "data": [{"smiles": "C#CCOc1ccc(/C=C/C(=O)Nc2ccccc2C(=O)O)cc1OC", "note": "[Analogue 11]", "values": [{"measurement": "Body Weight", "setting": "[1]", "result": "278 ± 12", "unit": "Gram"}, {"measurement": "Plasma Glucose", "setting": "[1]", "result": "30 ± 1.5", "unit": "mmol/L"}, {"measurement": "Body Weight", "setting": "[2]", "result": "309 ± 7", "unit": "Gram"}, {"measurement": "Plasma Glucose", "setting": "[2]", "result": "7 ± 0.2", "unit": "mmol/L"}]}]}
